Reference: the supplement of paper PMC12823440, “Inhibitors supercharge kinase turnover through native proteolytic circuits” (Nature, 2025)
The list shows a part of the results. The calls rarely recur for the same compound in another form.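 Kinases, fused to nanoluciferase, were expressed in K562 cells; luminescence was measured every 4 h from 2 to 18 h as percent of control (DMSO = 100%, positive control = 0%). A time point is decreased if signal falls significantly (2 sigma). Hits were called by the authors by a rule that is not shown; the count of time points alone does not decide it.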

Chains of the proteins cited; added tags and fusions are not shown. Lines headed by an entry give the natural chain unless they say otherwise; changes in a name come on top.
UniProt Q15418, whole entry: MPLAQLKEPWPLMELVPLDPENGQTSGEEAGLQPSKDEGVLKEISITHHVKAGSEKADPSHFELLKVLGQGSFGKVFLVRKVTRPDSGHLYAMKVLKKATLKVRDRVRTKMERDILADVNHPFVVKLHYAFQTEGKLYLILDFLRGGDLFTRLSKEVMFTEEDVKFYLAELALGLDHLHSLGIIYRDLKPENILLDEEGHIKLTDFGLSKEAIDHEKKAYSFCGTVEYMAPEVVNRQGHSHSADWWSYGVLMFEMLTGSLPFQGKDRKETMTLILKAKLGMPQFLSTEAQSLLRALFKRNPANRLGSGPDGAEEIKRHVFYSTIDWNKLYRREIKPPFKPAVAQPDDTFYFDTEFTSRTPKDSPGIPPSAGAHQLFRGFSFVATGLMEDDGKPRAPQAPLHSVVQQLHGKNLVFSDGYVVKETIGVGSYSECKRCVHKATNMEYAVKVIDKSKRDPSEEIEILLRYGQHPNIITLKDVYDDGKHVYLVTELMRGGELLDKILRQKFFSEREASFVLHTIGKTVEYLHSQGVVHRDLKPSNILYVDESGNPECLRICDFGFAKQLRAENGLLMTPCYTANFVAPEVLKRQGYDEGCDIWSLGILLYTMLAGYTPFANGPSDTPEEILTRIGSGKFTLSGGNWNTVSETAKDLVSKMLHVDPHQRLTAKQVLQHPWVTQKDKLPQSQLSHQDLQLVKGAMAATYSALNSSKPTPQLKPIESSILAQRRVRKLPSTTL
UniProt Q9NYA1, whole entry: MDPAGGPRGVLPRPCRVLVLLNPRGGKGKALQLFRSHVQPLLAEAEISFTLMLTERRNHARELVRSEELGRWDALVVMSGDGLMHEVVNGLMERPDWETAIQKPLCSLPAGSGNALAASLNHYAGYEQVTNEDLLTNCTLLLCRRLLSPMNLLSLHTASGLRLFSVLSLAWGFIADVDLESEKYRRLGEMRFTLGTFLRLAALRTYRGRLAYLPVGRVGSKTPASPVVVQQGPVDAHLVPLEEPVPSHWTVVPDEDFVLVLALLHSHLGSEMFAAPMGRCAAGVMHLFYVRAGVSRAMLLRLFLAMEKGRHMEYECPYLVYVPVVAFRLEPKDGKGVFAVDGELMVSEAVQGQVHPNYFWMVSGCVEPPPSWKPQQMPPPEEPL
UniProt Q9Y6E0: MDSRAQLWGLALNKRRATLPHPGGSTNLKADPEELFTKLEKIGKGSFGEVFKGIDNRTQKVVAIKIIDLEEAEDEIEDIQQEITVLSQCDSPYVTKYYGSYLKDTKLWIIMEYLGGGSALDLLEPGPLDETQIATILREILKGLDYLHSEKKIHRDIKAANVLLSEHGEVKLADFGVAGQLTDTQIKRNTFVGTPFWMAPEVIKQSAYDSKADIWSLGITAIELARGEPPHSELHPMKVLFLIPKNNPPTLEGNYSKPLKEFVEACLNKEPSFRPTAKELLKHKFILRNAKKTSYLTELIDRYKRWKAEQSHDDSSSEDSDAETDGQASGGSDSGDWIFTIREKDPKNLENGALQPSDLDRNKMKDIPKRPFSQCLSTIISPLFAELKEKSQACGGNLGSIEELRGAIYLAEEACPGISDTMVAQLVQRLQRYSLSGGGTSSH
UniProt Q15208: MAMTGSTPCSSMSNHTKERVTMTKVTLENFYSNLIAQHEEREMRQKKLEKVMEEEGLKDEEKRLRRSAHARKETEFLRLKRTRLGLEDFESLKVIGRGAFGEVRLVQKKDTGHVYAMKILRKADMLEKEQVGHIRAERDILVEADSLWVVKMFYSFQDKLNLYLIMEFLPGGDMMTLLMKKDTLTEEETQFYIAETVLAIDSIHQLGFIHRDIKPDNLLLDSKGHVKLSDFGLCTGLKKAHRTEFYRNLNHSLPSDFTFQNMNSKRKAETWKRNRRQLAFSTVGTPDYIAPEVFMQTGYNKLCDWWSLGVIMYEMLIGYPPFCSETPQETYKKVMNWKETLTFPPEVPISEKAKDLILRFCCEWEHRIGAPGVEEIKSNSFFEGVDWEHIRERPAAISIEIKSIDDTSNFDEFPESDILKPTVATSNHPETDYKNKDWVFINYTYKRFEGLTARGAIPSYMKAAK
UniProt P42680: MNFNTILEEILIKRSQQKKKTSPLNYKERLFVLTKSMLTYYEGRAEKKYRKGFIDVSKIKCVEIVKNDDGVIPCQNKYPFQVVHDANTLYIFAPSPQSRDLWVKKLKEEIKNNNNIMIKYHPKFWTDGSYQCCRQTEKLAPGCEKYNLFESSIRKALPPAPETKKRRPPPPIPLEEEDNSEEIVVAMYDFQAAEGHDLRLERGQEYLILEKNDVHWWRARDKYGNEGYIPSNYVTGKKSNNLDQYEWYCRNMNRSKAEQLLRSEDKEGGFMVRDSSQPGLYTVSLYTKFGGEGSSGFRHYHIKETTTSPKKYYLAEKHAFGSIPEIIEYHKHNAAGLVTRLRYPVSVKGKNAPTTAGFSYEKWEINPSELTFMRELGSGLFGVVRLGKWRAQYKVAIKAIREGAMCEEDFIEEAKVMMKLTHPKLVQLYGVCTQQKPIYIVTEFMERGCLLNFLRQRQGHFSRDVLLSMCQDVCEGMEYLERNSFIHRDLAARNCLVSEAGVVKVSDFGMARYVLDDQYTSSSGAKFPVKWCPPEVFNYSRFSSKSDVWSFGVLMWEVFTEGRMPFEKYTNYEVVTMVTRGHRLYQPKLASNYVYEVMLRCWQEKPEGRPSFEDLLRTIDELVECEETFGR
UniProt P29597: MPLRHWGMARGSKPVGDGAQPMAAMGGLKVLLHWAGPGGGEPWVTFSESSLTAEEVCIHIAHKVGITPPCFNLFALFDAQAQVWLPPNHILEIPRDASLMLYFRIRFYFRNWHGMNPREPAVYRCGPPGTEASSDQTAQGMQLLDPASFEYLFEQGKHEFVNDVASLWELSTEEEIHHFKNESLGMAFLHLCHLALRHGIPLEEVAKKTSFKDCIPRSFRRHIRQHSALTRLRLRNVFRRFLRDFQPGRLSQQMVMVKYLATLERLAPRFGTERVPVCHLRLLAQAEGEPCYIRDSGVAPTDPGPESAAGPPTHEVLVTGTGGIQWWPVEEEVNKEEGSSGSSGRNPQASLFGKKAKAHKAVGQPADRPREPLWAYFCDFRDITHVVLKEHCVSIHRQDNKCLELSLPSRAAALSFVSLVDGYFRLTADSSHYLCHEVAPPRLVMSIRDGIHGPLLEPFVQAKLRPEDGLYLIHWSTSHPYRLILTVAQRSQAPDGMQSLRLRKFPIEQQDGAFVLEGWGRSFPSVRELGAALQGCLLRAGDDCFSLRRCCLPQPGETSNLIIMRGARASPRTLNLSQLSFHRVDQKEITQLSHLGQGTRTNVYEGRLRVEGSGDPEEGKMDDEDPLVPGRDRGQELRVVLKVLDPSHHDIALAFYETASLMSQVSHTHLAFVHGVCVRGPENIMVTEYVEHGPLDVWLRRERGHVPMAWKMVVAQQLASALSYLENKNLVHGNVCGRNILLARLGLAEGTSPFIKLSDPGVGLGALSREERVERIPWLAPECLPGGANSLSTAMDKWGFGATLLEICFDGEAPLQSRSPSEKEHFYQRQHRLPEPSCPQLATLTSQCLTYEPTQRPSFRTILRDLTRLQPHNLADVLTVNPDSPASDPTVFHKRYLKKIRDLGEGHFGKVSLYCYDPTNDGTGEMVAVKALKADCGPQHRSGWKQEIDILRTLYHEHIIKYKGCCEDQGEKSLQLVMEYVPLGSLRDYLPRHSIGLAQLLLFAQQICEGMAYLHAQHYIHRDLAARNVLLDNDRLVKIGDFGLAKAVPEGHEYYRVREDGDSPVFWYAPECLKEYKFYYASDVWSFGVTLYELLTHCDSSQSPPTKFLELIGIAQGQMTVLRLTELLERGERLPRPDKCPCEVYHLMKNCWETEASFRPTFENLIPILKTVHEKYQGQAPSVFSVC
UniProt Q6PHR2: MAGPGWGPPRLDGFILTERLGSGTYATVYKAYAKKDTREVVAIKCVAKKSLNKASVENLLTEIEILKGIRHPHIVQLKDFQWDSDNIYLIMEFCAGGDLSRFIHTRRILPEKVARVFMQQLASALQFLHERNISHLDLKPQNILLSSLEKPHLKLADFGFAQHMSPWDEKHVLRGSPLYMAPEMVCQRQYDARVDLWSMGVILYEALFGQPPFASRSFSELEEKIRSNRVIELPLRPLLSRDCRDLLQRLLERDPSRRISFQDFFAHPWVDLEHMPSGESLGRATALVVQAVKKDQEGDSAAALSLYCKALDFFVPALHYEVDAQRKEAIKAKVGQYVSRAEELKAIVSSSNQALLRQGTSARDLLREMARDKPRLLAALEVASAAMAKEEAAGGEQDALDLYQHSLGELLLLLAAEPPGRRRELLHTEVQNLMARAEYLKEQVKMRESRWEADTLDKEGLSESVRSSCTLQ
UniProt P07947, whole entry, looked up: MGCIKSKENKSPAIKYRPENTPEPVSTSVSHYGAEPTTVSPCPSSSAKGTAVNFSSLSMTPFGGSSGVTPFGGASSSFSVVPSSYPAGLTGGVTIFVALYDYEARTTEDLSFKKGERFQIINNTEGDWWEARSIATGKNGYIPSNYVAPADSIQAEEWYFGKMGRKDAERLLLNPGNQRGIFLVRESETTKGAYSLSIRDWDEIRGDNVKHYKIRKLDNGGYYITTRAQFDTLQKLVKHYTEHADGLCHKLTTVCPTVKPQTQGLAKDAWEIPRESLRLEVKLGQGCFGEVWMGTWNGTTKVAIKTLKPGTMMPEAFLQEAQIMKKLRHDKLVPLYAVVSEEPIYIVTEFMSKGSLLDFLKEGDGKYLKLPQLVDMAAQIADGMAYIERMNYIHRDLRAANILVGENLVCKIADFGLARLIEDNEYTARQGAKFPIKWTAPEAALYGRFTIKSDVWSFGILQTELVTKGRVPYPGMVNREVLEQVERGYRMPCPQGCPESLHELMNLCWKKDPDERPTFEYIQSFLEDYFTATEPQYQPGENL
UniProt P43403: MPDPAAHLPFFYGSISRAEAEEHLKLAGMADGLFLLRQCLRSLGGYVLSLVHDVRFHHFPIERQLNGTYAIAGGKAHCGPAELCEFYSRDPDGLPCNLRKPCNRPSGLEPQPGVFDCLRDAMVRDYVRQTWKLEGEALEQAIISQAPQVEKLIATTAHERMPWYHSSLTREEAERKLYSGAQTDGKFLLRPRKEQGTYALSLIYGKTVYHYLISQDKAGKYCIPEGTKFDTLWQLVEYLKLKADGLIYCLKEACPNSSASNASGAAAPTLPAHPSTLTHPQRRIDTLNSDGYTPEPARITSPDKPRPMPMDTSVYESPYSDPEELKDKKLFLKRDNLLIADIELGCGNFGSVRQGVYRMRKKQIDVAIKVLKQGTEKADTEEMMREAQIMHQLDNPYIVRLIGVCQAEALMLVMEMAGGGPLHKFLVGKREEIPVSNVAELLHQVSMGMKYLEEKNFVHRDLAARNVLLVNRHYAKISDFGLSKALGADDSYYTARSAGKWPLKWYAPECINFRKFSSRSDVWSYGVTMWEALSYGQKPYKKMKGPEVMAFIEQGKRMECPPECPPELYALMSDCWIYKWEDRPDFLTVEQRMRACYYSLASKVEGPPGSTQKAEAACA
UniProt P11802: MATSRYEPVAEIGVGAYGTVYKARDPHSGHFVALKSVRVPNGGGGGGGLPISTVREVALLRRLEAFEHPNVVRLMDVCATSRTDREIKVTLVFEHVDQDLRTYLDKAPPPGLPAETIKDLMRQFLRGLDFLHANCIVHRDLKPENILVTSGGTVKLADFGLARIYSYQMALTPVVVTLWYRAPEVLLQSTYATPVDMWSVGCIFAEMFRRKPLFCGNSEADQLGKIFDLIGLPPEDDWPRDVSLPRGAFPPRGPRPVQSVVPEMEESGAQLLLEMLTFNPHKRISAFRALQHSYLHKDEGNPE
UniProt P50613: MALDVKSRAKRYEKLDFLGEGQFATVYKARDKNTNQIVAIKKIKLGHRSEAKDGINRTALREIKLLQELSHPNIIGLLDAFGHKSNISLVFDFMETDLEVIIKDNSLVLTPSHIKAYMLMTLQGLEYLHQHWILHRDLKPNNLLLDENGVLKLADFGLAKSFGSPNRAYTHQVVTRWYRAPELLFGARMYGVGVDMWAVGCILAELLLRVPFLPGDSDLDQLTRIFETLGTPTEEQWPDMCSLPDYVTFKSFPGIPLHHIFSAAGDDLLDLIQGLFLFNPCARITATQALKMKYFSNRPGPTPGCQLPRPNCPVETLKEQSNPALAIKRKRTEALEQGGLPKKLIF
UniProt P50750, whole entry: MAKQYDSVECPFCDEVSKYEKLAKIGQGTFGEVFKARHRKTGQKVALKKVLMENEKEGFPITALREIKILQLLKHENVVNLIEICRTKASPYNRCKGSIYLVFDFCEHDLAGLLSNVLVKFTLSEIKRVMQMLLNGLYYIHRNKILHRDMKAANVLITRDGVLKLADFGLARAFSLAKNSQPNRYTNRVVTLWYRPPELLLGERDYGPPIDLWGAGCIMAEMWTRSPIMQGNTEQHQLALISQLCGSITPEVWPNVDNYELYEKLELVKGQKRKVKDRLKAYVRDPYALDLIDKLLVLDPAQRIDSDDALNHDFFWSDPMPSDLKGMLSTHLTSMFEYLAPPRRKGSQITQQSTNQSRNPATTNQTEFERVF

Tests used:
Conditions in all cases: K562; 2-18 h
[1] = target: ROR2 (UniProt Q01974); assay: number of time points (of 5) at which kinase-Nluc abundance scored as decreased, DMSO-normalised (count); higher = more persistent destabilization
[2] = target: RPS6KA1 (UniProt Q15418); assay: as above
[3] = target: SPHK1 (UniProt Q9NYA1); assay: as above
[4] = target: SRC (UniProt P12931); assay: as above
[5] = target: STK24 (UniProt Q9Y6E0); assay: as above
[6] = target: STK38 (UniProt Q15208); assay: as above
[7] = target: SYK (UniProt P43405); assay: as above
[8] = target: TEC (UniProt P42680); assay: as above
[9] = target: TYK2 (UniProt P29597); assay: as above
[10] = target: ULK3 (UniProt Q6PHR2); assay: as above
[11] = target: YES1 (UniProt P07947); assay: as above
[12] = target: ZAK (UniProt Q9NYL2); assay: as above
[13] = target: ZAP70 (UniProt P43403); assay: as above
[14] = target: CDK4 (UniProt P11802); assay: number of time points (of 4; 2 h point missing) at which kinase-Nluc abundance scored as decreased, DMSO-normalised (count); higher = more persistent destabilization
[15] = target: CDK7 (UniProt P50613); assay: as above
[16] = target: CDK9 (UniProt P50750); assay: as above

Measured: number of time points

Nc1ccc(Sc2nc3ccccc3s2)c(Cl)c1 [KRAS inhibitor-9] (10 µM)
0: all assays above

C[C@@H](NC(=O)c1ncnc(N)c1Cl)c1ncc(C(=O)Nc2cc(C(F)(F)F)c(Cl)cn2)s1 (2.5 µM)
2: [8] | [11] | [16]
1: [6] | [12]
3: [3] | [9] | [10] | [15]
0: all other assays above

COc1cc2nnc(C(N)=O)c(Nc3ccc(C)cc3F)c2cc1N1CCN(CCO)CC1 (2.5 µM)
0: all assays above

O=[N+]([O-])c1ccc(-c2nc(-c3ccc(F)cc3)c(-c3ccncc3)[nH]2)cc1 (10 µM)
5: [3] | [9]
1: [6] | [14]
0: all other assays above

COc1ccc(Br)c(C=O)c1O [6-Bromo-2-hydroxy-3-methoxybenzaldehyde] (10 µM)
0: all assays above

Nc1[nH]nc2nnc(-c3c(-c4ccccc4)nn4ccccc34)cc12 (10 µM)
0: all assays above

S=C(NCc1ccc2c(c1)OCO2)N1CCN(c2ncnc3c2oc2ccccc23)CC1 [Amuvatinib] (2.5 µM)
0: all assays above

COc1ccc(CN2CCC(c3ccc4nc(C(=O)N5CCN(Cc6ccc(C(F)(F)F)cc6)CC5)[nH]c4c3)CC2)cn1 (2.5 µM)
1: [15]
2: [8]
0: all other assays above

O=C1NC(=O)C(Cc2c[nH]c3c(Cl)cccc23)N1 (centres undefined) [Necroptosis-IN-1] (10 µM)
0: all assays above

COc1ccc2cc1Oc1ccc(cc1)C[C@H]1c3cc(c(OC)cc3CCN1C)Oc1c(O)c(OC)cc3c1[C@H](C2)N(C)CC3 [Fangchinoline] (2.5 µM)
0: all assays above

CC(C1CC1)n1cnc2c(NCc3cccc(C(F)(F)F)c3)nc(NCCN(C)C)nc21 (centres undefined) (10 µM)
0: all assays above

CCOc1cc(=O)[nH]cc1-c1ccc(CC(=O)Nc2cc(C(C)(C)C(F)(F)F)on2)c(F)c1 (10 µM)
0: all assays above

C=CC(=O)Nc1cc(Nc2nccc(-c3cn(C)c4ccccc34)n2)c(OCC(F)(F)F)nc1N(C)CCNC [AST5902  (trimesylate)] (2.5 µM)
1: [6]
4: [10]
0: all other assays above

CN1CCN(Cc2ccc(-c3cn(C4CCC(O)CC4)c4nc(NCCC5CC5)ncc34)cc2)CC1 (centres undefined) (2.5 µM)
3: [9]
2: [10]
1: [15]
0: all other assays above

Cc1cnc(Cl)nc1-c1ccc(N(Cc2ccc(CNC(=O)C(F)F)cc2)C(=O)c2ccc(O)cc2O)cc1 (10 µM)
0: all assays above

COc1ccc(-c2cc(=O)c3c(O)cc(O)cc3o2)cc1-c1c(O)cc(O)c2c(=O)cc(-c3ccc(O)cc3)oc12 [Bilobetin] (2.5 µM)
0: all assays above

COc1c(Nc2ncc(Cl)c(N[C@H]3[C@@H](C(N)=O)[C@@H]4C=C[C@H]3C4)n2)ccc2c1CC[C@@H](N1CCOCC1)CC2 (10 µM)
0: all assays above

COc1cc2ncnc(Nc3cc(Br)c(O)c(Br)c3)c2cc1OC (2.5 µM)
0: all assays above

COc1cc(N2CCC(O)CC2)ccc1Nc1nc(Nc2ccccc2S(=O)(=O)C(C)C)c2[nH]cnc2n1 (10 µM)
0: all assays above

O=C1OC(COc2ccccc2[N+](=O)[O-])CC1Cc1ccccc1 (centres undefined) (10 µM)
0: all assays above

Cc1nc(Nc2cnn(C3CCNCC3)c2)nc2c1N(C)C(=O)c1cc3ccccc3cc1N2C (2.5 µM)
0: all assays above

COc1cccc(-c2cc(=O)c3ccccc3o2)c1N (10 µM)
0: all assays above

CN(C[C@@H]1COCCO1)S(=O)(=O)Nc1ccc2ccc3ncc(-c4cnn(C)c4)cc3c(=O)c2c1 (2.5 µM)
0: all assays above

N#Cc1cnc(Nc2cc(NC[C@H]3CNCCO3)c(C(F)(F)F)cn2)cn1 (10 µM)
1: [4] | [10] | [15]
0: all other assays above

CC(C)(Oc1ccc(Cl)cc1)C(=O)Nc1ccc(OCc2ccc(C#N)cc2)cc1 [AMPK activator 4] (10 µM)
1: [3]
0: all other assays above

COc1ccc2nc3ccc(OC)cc3c(SCCCN)c2c1 (10 µM)
2: [10] | [11] | [15]
1: [7] | [12]
0: all other assays above

As a short view, five of the compounds above:
O=C1OC(COc2ccccc2[N+](=O)[O-])CC1Cc1ccccc1 (centres undefined) (10 µM)
0: all assays above

Cc1nc(Nc2cnn(C3CCNCC3)c2)nc2c1N(C)C(=O)c1cc3ccccc3cc1N2C (2.5 µM)
0: all assays above

COc1cccc(-c2cc(=O)c3ccccc3o2)c1N (10 µM)
0: all assays above

CN(C[C@@H]1COCCO1)S(=O)(=O)Nc1ccc2ccc3ncc(-c4cnn(C)c4)cc3c(=O)c2c1 (2.5 µM)
0: all assays above

N#Cc1cnc(Nc2cc(NC[C@H]3CNCCO3)c(C(F)(F)F)cn2)cn1 (10 µM)
1: [4] | [10] | [15]
0: all other assays above

Next part

CC(=O)Nc1nc(C)c(-c2cc(C)c3c(c2)CN([C@@H](C)C2CC2)C3=O)s1 (10 µM)
0: all assays above

O=C(O)c1c[nH]c2cc(Cl)c(-c3ccc(C4(O)CCC4)cc3)cc12 (10 µM)
0: all assays above

O=S(=O)(c1ccc(O)cc1O)N1Cc2cc(O)cc(O)c2C1 (10 µM)
0: all assays above
